According to PubChem BioAssay AID493014 (National Center for Advancing Translational Sciences (NCATS), 2011):
Hit rate of the full screen: of about 340,000 compounds, about 170 (0.05%) were called active. This list was built around the results that the source calls inconclusive (neither active nor inactive); the mix of calls is not that of the screen. The call rests on the fitted dose curve; in most records, active means well fitted inhibition curve with a large enough effect in the signal ratio, with a control signal flat (not every such curve was filed as active); inconclusive means small, poorly fitted or top-dose-only effect, or effect the other way, or a change in a side signal; inactive means flat fitted curve, though single readings scatter; the % refers to the signal ratio. Potencies of inconclusive entries are doubtful fits and often do not repeat.

Experiment: qHTS Assay to Find Inhibitors of Chronic Active B-Cell Receptor Signaling;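 on activity change, negative = inhibition: plate controls were basal doxycycline-induced cells for no effect and cells given 10 µM MG132 for full effect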
Settings: ABC-DLBCL IkBa-CBG/CBR reporter, luminescence ratio (green luciferase fused to IkBa over red control in TMD8 lymphoma cells), 4 h; activity change, negative = inhibition: at 46.1 µM (top of the series)
Method in brief: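 Cell line TMD8 (human ABC DLBCL), stably expressing tet-inducible CBG68-IkBa fusion and CBR; IMDM/0.5% FBS; cpd up to 46 uM; dox induction, 4 h, 37C/5% CO2; dual luminescence; green/red ratio; MG132 control.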
Potency means the concentration at half of the fitted maximal effect.

Row | SMILES | Potency | activity change, negative = inhibition
1 | COc1cccc(C(=O)N/N=c2\sc3ccccc3n2C)c1 | inconclusive: 10.3 µM [falling, partial curve, poor fit] | 
2 | CCSc1nnc(C)c2ccccc12 |  | inconclusive: -7.56%
3 | Cc1ccc(NC(=O)C(C)Sc2nnc(C3CC3)n2C2CC2)cc1S(=O)(=O)N1CCOCC1 (centres undefined) |  | inconclusive: 5.24%
4 | Cc1sc2nc(SCCO)n(-c3ccccc3)c(=O)c2c1C |  | inconclusive: -0.594%
5 | O=C(N/N=C/c1c(F)cccc1Cl)C1CC1 |  | inconclusive: 6.86%
6 | NS(=O)(=O)c1ccc(CCNC(=O)CCC2COc3ccccc3O2)cc1 (centres undefined) | inconclusive: 13 µM [rising, partial curve] | 
7 | COc1cc(-c2[nH]ncc2CN2CCSCC2)cc(OC)c1OC | inconclusive: 20 µM [falling, single point] | 
8 | O=C(Cc1ccc(NC2=NC3CS(=O)(=O)CC3S2)cc1)NCCc1ccccc1 (centres undefined) |  | inactive
9 | COc1ccc(N(C(=O)c2ccncc2)S(=O)(=O)c2ccc3c4c(cccc24)C(=O)N3C)cc1 |  | inconclusive: -26.2%
10 | CCN(CC)CCNC(=O)CCCCCn1c(=O)[nH]c2cc(C(=O)OC)ccc2c1=O |  | inconclusive: 12.8%
11 | CC(C)Cc1csc(NC(=O)c2ccc(Cl)cc2)c1C(=O)O |  | inconclusive: 471%
12 | Cc1ccc(S(=O)(=O)CC(=O)N2CCCCCC2)cc1 |  | inconclusive: 4.49%
13 | COCc1cc(C)nc(SCC(=O)Oc2ccc(Cl)cc2)c1C#N | inconclusive: 14.1 µM [rising, partial curve, poor fit] | 
14 | O=C1Nc2ccc([N+](=O)[O-])cc2OC1CCN1CCN(Cc2ccc3c(c2)OCO3)CC1 (centres undefined) |  | inconclusive: -17.9%
15 | COc1ccc(Oc2nc(-c3ccccn3)nc3ccccc23)cc1 | inconclusive: 12.6 µM [falling, partial curve] | 
16 | COc1ccc(C(=O)N/N=C/c2sc(N3CCOCC3)nc2-c2ccccc2)cc1OC |  | inactive
17 | O=C(CCSc1nc2ccccc2o1)N1CCOCC1 | inconclusive: 23.1 µM [falling, partial curve] | 
18 | c1ccc(C[C@H]2CNCCN2CCC23CC4CC(CC(C4)C2)C3)cc1 | inconclusive: 20.6 µM [falling, single point] | 
19 | CCC(=O)Nc1ccc(S(=O)(=O)N2CCC(c3nc4ccccc4[nH]3)CC2)cc1 |  | inconclusive: 15.6%
20 | O=C(N/N=C/C1CCCCC1)c1cc(Cl)ccc1O |  | inconclusive: 176%
21 | O=C(NCc1ccc(F)cc1)c1noc2c1CCCC2 |  | inconclusive: 3.38%
22 | CCOC(=O)NC(=O)/C(C#N)=N/Nc1c(F)cccc1F |  | inconclusive: 16.2%
23 | Cc1ccccc1OCCCN1C(=O)C(=O)c2cccc(C)c21 |  | inactive
24 | COc1cccc2c1C(=O)C=C(C)C2=O | inconclusive: 18.4 µM [falling, single point] | 
25 | COc1cccc(C(=O)Nc2nnc(-c3ccc(OC)cc3OC)s2)c1 | inconclusive: 0.562 µM [falling, full curve, poor fit] | 
26 | CCOC(=O)c1sc(=S)n(C)c1NC(=O)c1ccc(OC)cc1 |  | inconclusive: 12.1%
27 | CS(=O)(=O)CCSc1ncccc1C(=O)NCc1cccs1 | inconclusive: 22.4 µM [falling, single point] | 

A few values from the entries so far.
Entry for COc1cc(-c2[nH]ncc2CN2CCSCC2)cc(OC)c1OC under Potency: inconclusive: 20 µM [falling, single point]
Entry for Cc1sc2nc(SCCO)n(-c3ccccc3)c(=O)c2c1C under activity change, negative = inhibition: inconclusive: -0.594%

More results.

Row | SMILES | Potency | activity change, negative = inhibition
28 | O=C(Nc1ccc(O)cc1)c1ccc2c(c1)C(=O)N(Cc1ccco1)C2=O |  | inconclusive: -10.9%
29 | CCN(C(=O)C1=COCCO1)c1nc2c(C)cccc2s1 |  | inconclusive: 28.6%
30 | CN(CC(=O)NCCC1=CCCCC1)S(=O)(=O)c1ccc2c(c1)CCC(=O)N2 |  | inconclusive: 11.8%
31 | COc1ccc(S(=O)(=O)N(C)C)cc1NC(=O)c1ccc2c(c1)NC(=O)C(C)S2 (centres undefined) |  | inconclusive: -0.848%
32 | Cc1cccc(CCN2C(Nc3ccccc3)=NC[C@@H]2CC(C)C)c1 |  | inconclusive: -18.5%
33 | O=C(Nc1ccccc1)C(Cc1cccs1)c1nn[nH]n1 (centres undefined) |  | inconclusive: 15.3%
34 | CCOC(=O)N1CCN(C(=O)CCN2C(=O)/C(=C\c3ccccc3OC)SC2=S)CC1 | inconclusive: 17.8 µM [falling, partial curve, poor fit] | 
35 | CCOC(=O)Cc1cn(C(=O)OC(C)(C)C)c2ccccc12 |  | inconclusive: -1.41%
36 | Cc1ncc(CO)c(/C=N/NC(=O)c2cc3c(s2)CCCC3)c1O |  | inactive
37 | O=C(Nc1ccc2c(c1)OCO2)OCc1ccccc1 |  | inconclusive: -22.5%
38 | CCCOc1nc(SCCC)nc2c1cnn2-c1ccccc1 |  | inconclusive: 12.9%
39 | COc1ccc(N2CCN(CCCNC(=O)Nc3ccccc3)CC2)cc1 |  | inconclusive: 10.4%
40 | CC(C)(C)C1CCc2sc(-c3nnc(CCl)o3)cc2C1 (centres undefined) | inconclusive: 35.5 µM [falling, single point] | 
41 | Nc1c(C=C2C=CC(=O)C=C2)c(=O)nc2snc(SCc3ccccc3)n12 |  | inconclusive: 9.04%
42 | Clc1ccc(CNCCC2=CCCCC2)cc1 | inconclusive: 16.4 µM [rising, partial curve, poor fit] | 
43 | CC(=O)c1ccc(NC(=O)Nc2cccc(Cl)c2)cc1 |  | inconclusive: 20.4%
44 | COc1cc(OC)c(C2CC(=O)N3CN(c4ccccc4)CSC3=C2C#N)cc1OC (centres undefined) |  | inactive
45 | COc1ccccc1-c1ccc(SCC(=O)NCCc2ccccc2)nn1 |  | inactive
46 | N#CCC(=O)Nc1sc2c(c1C(N)=O)CCCC2 | inconclusive: 29.1 µM [falling, single point] | 
47 | COc1ccc(NC(=O)c2csc(C)c2)cc1OC |  | inconclusive: 2.37%
48 | O=c1cc(CN2CCN(S(=O)(=O)/C=C/c3ccccc3)CC2)c2ccc(O)cc2o1 |  | inconclusive: 11%
49 | Cc1ccc(C(=O)NCCNc2nc3cc(C)c(C)cc3cc2C)cc1 |  | inactive
50 | COCC1CCN(Cc2nc(-c3ccc4c(c3)OCO4)no2)C1 (centres undefined) |  | inconclusive: 2.25%
51 | O=C(NNC(=S)NC1CCCCC1)c1ccccc1Br |  | inconclusive: -13.7%
52 | Cc1cc(C(=O)Nc2ccc(-n3c(C)nc4ccccc4c3=O)cc2)ccc1[N+](=O)[O-] | inconclusive: 1.26 µM [falling, full curve, poor fit] | 
53 | CCC(C)Nc1ncnc2c1cnn2-c1ccc(F)cc1 (centres undefined) | inconclusive: 35.5 µM [rising, single point] | 
54 | Cc1cc(C)n(-c2nc(NC(C)(C)C)nc(NC(C)(C)C)n2)n1 |  | inactive

Row | SMILES | Potency | activity change, negative = inhibition
55 | Cn1cc(S(=O)(=O)N2CCNCC2)cc1C(N)=O |  | inconclusive: -0.848%
56 | CCOC(=O)c1sc(NC(=O)CSc2nccc(C)n2)nc1C | inconclusive: 35.5 µM [falling, partial curve, poor fit] | 
57 | COc1ccc(CN(CC2CCCO2)C(=O)c2cc3sccc3n2C)c(OC)c1 (centres undefined) | inconclusive: 20 µM [falling, single point] | 
58 | COc1cccc(/C=N/NC(=O)c2ccc(N3CCCC3=O)cc2)c1 | inconclusive: 17.8 µM [falling, single point] | 
59 | COc1ccc(CN2CCN(c3ccc(F)cc3)CC2)c(OC)c1OC |  | inactive
60 | O=C(NNC1OC(CO)C(O)C(O)C1O)c1cccnc1 (centres undefined) |  | inconclusive: -5.08%
61 | COc1ccc(C(=O)Nc2cccc(-c3nc4ncccc4o3)c2C)cc1OC | inconclusive: 2.91 µM [rising, full curve, poor fit] | 
62 | COc1ccc(C(=O)N/N=C/c2cn[nH]c2-c2ccc(OC)cc2OC)cc1 |  | inactive
63 | FC(F)(F)c1cccc(NC(=S)N2CCCC2)c1 |  | inconclusive: -7.65%
64 | O=C(COC(=O)c1ccco1)Nc1nnc(-c2ccccc2)o1 | inconclusive: 29.1 µM [falling, single point] | 
65 | Fc1ccc(C2=CC(c3ccc(F)cc3)n3c(nc4ccccc43)N2)cc1 (centres undefined) | inconclusive: 35.5 µM [rising, single point] | 
66 | CCOc1ccccc1NC(=O)CSc1nc(=O)n(CCCN2CCOCC2)c2c1CCC2 |  | inconclusive: -2.12%
67 | Cc1ccc(OCC(=O)Nc2ccncc2)c(C)c1 |  | inconclusive: 7.27%
68 | Clc1ccccc1Nc1nnc(-c2ccncc2)s1 | inconclusive: 2.31 µM [falling, partial curve, poor fit] | 
69 | COc1ccc(CCNCC(O)COc2cccc(Br)c2)cc1OC (centres undefined) | inconclusive: 10 µM [falling, partial curve, poor fit] | 
70 | Cc1cc(C)nc(NN2C(=O)C=CC2=O)n1 |  | inconclusive: 0.882%
71 | Cc1ccc(S(=O)(=O)N2CCOCC2)cc1C(=O)NCCN1C(=O)S/C(=C\c2ccccc2Cl)C1=O |  | inactive
72 | COc1cc(C2C(C#N)=C(N)Oc3cc(N)ccc32)cc(OC)c1OC (centres undefined) | inconclusive: 4.11 µM [falling, partial curve, poor fit] | 
73 | Cc1coc2c1C(=O)C(=O)c1c-2ccc2c(C)cccc12 | inconclusive: 15.8 µM [rising, partial curve, poor fit] | 
74 | COc1ccccc1N(CC(=O)NCCc1ccccc1)C(=O)CCC(=O)Nc1cc(C)ccn1 |  | inconclusive: -22.4%
75 | N=c1c2c(-c3ccccc3)c(-c3ccccc3)n(Cc3ccco3)c2ncn1CCO | inconclusive: 29.1 µM [falling, single point] | 
76 | O=[N+]([O-])c1cccc(/C=N/Nc2cc(Cl)nc(-c3ccccc3)n2)c1 |  | inconclusive: 0.874%
77 | COc1ccc(CNC(=O)COc2cc(=O)n(C)c3ccccc23)cc1 | inconclusive: 35.5 µM [falling, single point] | 
78 | COc1cc(/C=C/C(=O)OCC(=O)NCCC2=CCCCC2)cc(OC)c1OC |  | inconclusive: -9.29%
79 | Nc1nc(-c2cc3c(cc2Cl)OCCO3)cs1 | inconclusive: 35.5 µM [falling, single point] | 

Part of the list above, as comma-separated lines.
Row,SMILES,Potency,"activity change, negative = inhibition"
26,CCOC(=O)c1sc(=S)n(C)c1NC(=O)c1ccc(OC)cc1,,inconclusive: 12.1%
27,CS(=O)(=O)CCSc1ncccc1C(=O)NCc1cccs1,"inconclusive: 22.4 µM [falling, single point]",
28,O=C(Nc1ccc(O)cc1)c1ccc2c(c1)C(=O)N(Cc1ccco1)C2=O,,inconclusive: -10.9%
29,CCN(C(=O)C1=COCCO1)c1nc2c(C)cccc2s1,,inconclusive: 28.6%
